Measured values taken from publication PMC3776838, “Detection of Phospho-Sites Generated by Protein Kinase CK2 in CFTR: Mechanistic Aspects of Thr1471 Phosphorylation” (PLoS ONE, 2013).
Results are given in words; binding and its absence hold for the method and conditions named. Some entries that bind do so weakly or less than the wild type.

Chains of the proteins cited; added tags and fusions are not shown.
UniProt P67870: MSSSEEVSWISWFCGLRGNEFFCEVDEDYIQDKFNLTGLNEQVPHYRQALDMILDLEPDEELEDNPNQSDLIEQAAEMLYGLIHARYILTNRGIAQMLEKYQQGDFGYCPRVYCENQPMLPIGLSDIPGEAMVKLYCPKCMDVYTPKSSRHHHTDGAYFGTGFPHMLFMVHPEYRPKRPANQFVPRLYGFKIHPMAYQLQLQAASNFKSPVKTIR

Molecular target: Human CK2 β-subunit (human) (UniProt P67870)
Test: reconstitution and co-purification (Heparin-Sepharose, size-exclusion chromatography); pellets of E. coli expressing CK2α and CK2β independently were mixed and lysed at 4°C in Tris/HCl 25 mM, pH 8, NaCl 0.4 M, DTT 1 mM; Heparin-Sepharose gradient 0.4–1 M NaCl; SEC in Tris/HCl 25 mM, pH 8, NaCl 0.5 M, DTT 1 mM

## Human CK2 β-subunit (from UniProt P67870 1-215)
  binding: binds
